Results from article PMC9450262.
Results are given in words; binding and its absence hold for the method and conditions named. In cells and extracts the contact can be indirect. Some results given as binding are weak or reduced against the parent protein; the word gives no strength.

Protein sequences, listed by entry. Tags and fused reporters are not part of them.
UniProt Q80SY4: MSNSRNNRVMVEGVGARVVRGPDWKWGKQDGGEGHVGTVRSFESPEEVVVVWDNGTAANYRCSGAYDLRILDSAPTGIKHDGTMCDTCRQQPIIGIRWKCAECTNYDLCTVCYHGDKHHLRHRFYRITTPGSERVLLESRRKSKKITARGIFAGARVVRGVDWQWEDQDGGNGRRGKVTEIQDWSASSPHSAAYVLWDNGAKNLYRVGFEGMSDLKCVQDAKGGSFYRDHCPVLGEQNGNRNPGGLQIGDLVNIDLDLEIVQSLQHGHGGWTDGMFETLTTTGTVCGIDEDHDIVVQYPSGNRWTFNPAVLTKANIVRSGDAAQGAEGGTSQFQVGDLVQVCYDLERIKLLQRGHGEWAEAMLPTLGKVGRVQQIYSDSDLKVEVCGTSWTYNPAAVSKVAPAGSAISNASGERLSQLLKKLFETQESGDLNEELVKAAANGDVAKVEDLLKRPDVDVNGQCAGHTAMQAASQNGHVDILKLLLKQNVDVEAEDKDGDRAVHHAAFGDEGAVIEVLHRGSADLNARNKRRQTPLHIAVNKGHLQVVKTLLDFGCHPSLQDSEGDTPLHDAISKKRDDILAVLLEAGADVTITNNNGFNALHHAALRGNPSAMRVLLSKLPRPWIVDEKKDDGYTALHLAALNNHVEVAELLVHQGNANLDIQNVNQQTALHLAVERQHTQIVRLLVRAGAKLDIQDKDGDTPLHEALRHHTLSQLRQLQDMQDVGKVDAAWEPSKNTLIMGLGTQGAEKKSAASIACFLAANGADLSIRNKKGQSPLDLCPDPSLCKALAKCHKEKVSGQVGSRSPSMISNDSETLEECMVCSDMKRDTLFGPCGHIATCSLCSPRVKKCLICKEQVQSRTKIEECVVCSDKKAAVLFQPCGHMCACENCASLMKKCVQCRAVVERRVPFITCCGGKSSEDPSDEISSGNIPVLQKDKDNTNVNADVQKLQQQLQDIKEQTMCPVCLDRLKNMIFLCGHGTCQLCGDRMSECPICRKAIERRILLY

Molecular target: T1, Acid ceramidase (ASAH1) (mouse (endogenous in primary pancreatic acinar cells of C57BL/6 mice)) (UniProt Q9WV54)
T1 sequence: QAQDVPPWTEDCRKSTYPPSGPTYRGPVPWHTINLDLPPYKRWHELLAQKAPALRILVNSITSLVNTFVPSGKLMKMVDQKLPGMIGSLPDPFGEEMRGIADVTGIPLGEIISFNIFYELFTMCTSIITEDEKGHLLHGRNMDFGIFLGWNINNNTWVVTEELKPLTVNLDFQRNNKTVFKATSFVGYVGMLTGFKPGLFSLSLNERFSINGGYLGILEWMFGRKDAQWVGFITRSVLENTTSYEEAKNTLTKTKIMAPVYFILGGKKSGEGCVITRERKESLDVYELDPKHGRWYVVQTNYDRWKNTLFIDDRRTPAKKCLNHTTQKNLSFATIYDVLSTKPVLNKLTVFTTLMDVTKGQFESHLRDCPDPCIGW
Assay: co-IP; lysate of primary pancreatic acinar cells (saline or 200 nM cerulein plus 10 ng/mL LPS, 6 h) incubated overnight at 4 °C with anti-ASAH1 antibody (mouse), Protein A/G magnetic beads; Western blotting

E3 ligase Mind bomb homolog 1 (MIB1) (from UniProt Q80SY4 1-1006) (enzyme)
binding: binds
